Data as given in PubChem BioAssay AID540276 (National Center for Advancing Translational Sciences (NCATS), 2011).
“And” between values parts separate entries of the source, which are not always exact repeats. Identical values can stand only once. Screen size: about 300,000 compounds; about 5,400 (1.8%) were called active. Inconclusive results, whose numbers are uncertain, are shown with a selection of clear calls. Calls come from the whole dose curve; tested in HEK293 cells. Where the call is inconclusive, the potency comes from a doubtful curve fit.

Assay: qHTS for inhibitors of binding or entry into cells for Marburg Virus
Conditions: Marburg virus pseudotyped entry inhibition, cell reporter; activity change, negative = inhibition: at 37.8 µM (top of the series) unless noted
% is set by controls: 0 for no effect and ±100 for the full control effect; potency is the fitted concentration of half-maximal effect.

SMILES	Potency	activity change, negative = inhibition
COc1ccccc1N1CCN(CCCCOc2cccc3ccccc23)CC1	inconclusive: 11.2 µM [inhibitor, partial curve, poor fit]	–
COc1cc2c(C(=O)N(C)c3cc(Cl)ccc3OC)cn(CC(C)C)c(=O)c2cc1OC	inconclusive: 1 µM [inhibitor, full curve, poor fit]	–
O=C(NCc1ccccc1)c1ccc(S(=O)(=O)N2CCCc3ccccc32)cc1	inconclusive: 29.1 µM [inhibitor, single point]	–
COc1ccc(C)cc1S(=O)(=O)N1CCN(S(=O)(=O)c2cc(C)ccc2OC)C(C)C1 (centres undefined)	inconclusive: 9.2 µM [inhibitor, partial curve, poor fit]	–
Cc1ccc[n+](CC(=O)Nc2c(Cl)cc(Cl)cc2Cl)c1	inconclusive: 0.316 µM [activator, partial curve, poor fit]	–
CC(C)NC(=O)NC(=O)CSc1nnc(COc2ccccc2F)n1C(C)C1CC2CCC1C2 (centres undefined)	inconclusive: 18.3 µM [inhibitor, single point]	–
C/C(=C\C(=O)c1ccccc1)NNC(=O)c1ccc(Cl)cc1	–	inactive: 2.75% [at 46.1 µM]
O=C(COC(=O)CNC(=O)c1ccc(Cl)cc1Cl)NC1CC1	inconclusive: 31.6 µM [activator, single point]	–
CC(C)(C)C(=O)Nc1nnc(SCC(=O)NCc2cccs2)s1	–	inactive: 3.82%
Cc1nnn(-c2nonc2N)c1C(=O)NNC(=O)c1ccc(Cl)c(Cl)c1	inconclusive: 0.355 µM [inhibitor, full curve, poor fit]	–
C=CCN=C(CC)C1=C(O)CCCC1=O	–	inactive: 1.66%
CCOC(=O)COc1cc2c(C(=O)OCC)c(C)oc2cc1Br	–	inactive: 9.17%
COc1cccc(N2CCN(S(=O)(=O)c3ccc4nc(-c5ccccc5)[nH]c4c3)CC2)c1	–	inactive: 2.32% [at 46.1 µM]
Cc1ccc2nsnc2c1NC(=O)COc1ccccc1	–	inactive: 1.95% [at 46.1 µM]
Cc1ccc2nc(C)c(C(=O)N/N=C/c3ccc(N4CCOCC4)cc3)cc2c1	inconclusive: 1.41 µM [inhibitor, partial curve, poor fit]	–
COc1ccc2c(c1O)-c1cccc3c1[C@@H](C2)N(C)CC3	active: 1 µM	–
O=C(c1[nH]ncc1-c1cccc(Br)c1)C1CO1 (centres undefined)	inconclusive: 12.6 µM [inhibitor, partial curve, poor fit]	–
COc1ccc(CNC(=O)c2cc3cccc(OC)c3oc2=O)cc1	inconclusive: 1 µM [activator, partial curve, poor fit]	–
CCCn1c2ccccc2c2cnn(CC(=O)NCCCN3CCCC(C)C3)c(=O)c21 (centres undefined)	inconclusive: 7.08 µM [inhibitor, full curve, poor fit]	–
COc1ccccc1N1C(=O)C(Cl)=C(Nc2ccccc2O)C1=O	–	inactive: -11.6% [at 46.1 µM]
O=C(Nc1ccc(N2CCCC2)c(Cl)c1)c1ccccc1[N+](=O)[O-]	–	inactive: 17%
CCCN(Cc1ccccc1)C(=O)Nc1ccc2c(c1)nnn2C	inconclusive: 3.66 µM [inhibitor, full curve, poor fit]	–
CCC(CC)C(=O)NCCc1cc2ccc(C)cc2[nH]c1=O	inconclusive: 0.731 µM [activator, partial curve, poor fit]	–

SMILES	Potency	activity change, negative = inhibition
COc1ccc(NC(=O)C2COc3ccccc3O2)cc1 (centres undefined)	inconclusive: 25.1 µM [activator, single point]	–
COc1ccc(OCc2cc(C(=O)NC(C)Cc3ccccn3)no2)c(Cl)c1 (centres undefined)	–	inactive: 4.66% [at 46.1 µM]
COc1c(Cl)cnn(-c2ccc(C)cc2)c1=O	–	inactive: -25.3%
COc1ccc(CCNC(=O)CN(c2ccc(OC)c(OC)c2)S(C)(=O)=O)cc1	inconclusive: 29.1 µM [inhibitor, partial curve, poor fit]	–
Cc1ccc(C2(CCNC(C)c3cccs3)CCOC(C(C)C)C2)cc1 (centres undefined)	inconclusive: 11.2 µM [inhibitor, partial curve, poor fit]	–
COc1ccc(N=c2sc3ccccc3n2C)cc1	–	inactive: -14.4%
CCOc1ccccc1NC(=O)COc1cccnc1[N+](=O)[O-]	inconclusive: 35.5 µM [inhibitor, single point]	–
COc1ccc2c(c1)C(=O)[C@H](OC(=O)N[C@H]1CCCc3ccccc31)[C@@H](c1ccc(OC)c(Br)c1)O2	inactive	–
O=C(COc1coc(CN2CCN(c3ccccc3)CC2)cc1=O)NC1CCCC1	–	inactive: -23.1%
CCN(CC)C(=O)C1=C(C)Nc2nc3ccccc3n2C1c1cccc(Cl)c1 (centres undefined)	–	inactive: -8.89% [at 46.1 µM]
O=C(CCN1C(=O)c2ccccc2S1(=O)=O)Nc1cc(Cl)ccc1Cl	–	inactive: 4.93%
CC(C)NC(=O)c1ccc(-n2nc(C(F)(F)F)c3c2CCCC3)cc1	inconclusive: 35.5 µM [activator, single point]	–
O=C(Nc1ccc(O)c(-c2nc3ccccc3o2)c1)C1(c2ccc(Br)cc2)CCCC1	inconclusive: 0.178 µM [inhibitor, full curve, poor fit]	–
Cc1ccc(C(=O)NNC(=O)CCn2nnc3ccccc32)cc1	inconclusive: 4.47 µM [inhibitor, partial curve, poor fit]	–
CCOC(=O)c1nnc(-c2ccccc2)nc1Sc1c(Cl)cccc1Cl	inconclusive: 35.5 µM [inhibitor, single point]	–
COC(=O)c1sccc1NC(=O)c1ccc(Br)s1	inconclusive: 20.6 µM [activator, single point]	–
Cc1ccc(-n2c(Cl)c(Cl)nc(Cl)c2=O)cc1	inconclusive: 8.91 µM [inhibitor, partial curve, poor fit]	–
Cc1c(C(=O)N2CCN(c3ccccn3)CC2)oc2ccccc12	inconclusive: 32.6 µM [inhibitor, single point]	–
O=C(CN1CCCC1)NC1C2CC3CC(C2)CC1C3 (centres undefined)	inconclusive: 29.1 µM [inhibitor, single point]	–
O=C(CSc1nc2ccccc2n1-c1ccccc1)Nc1ncc(Cl)cc1Cl	active: 1.12 µM	–
COc1ccccc1NC(=O)Nc1nc(CC(=O)N2CCN(c3ccc(F)cc3)CC2)cs1	active: 11.2 µM	–
O=C(CSc1cccc2cccnc12)NCc1ccco1	–	inactive: 3.79%
O=C(NC(=S)NCCSc1ccccc1)c1cccnc1	inconclusive: 1.26 µM [activator, partial curve, poor fit]	–

SMILES	Potency	activity change, negative = inhibition
NC(CC(=O)O)c1ccc(Br)cc1 (centres undefined)	–	inactive: -11.1%
Cc1cccc(C)c1NC(=O)CSCc1cnn(-c2ccccc2)c1-n1cccc1	inconclusive: 0.631 µM [inhibitor, full curve, poor fit]	–
COc1ccc(C=CC(C)=NNC(=O)c2ccncc2)cc1	inconclusive: 35.5 µM [inhibitor, single point]	–
FC(F)(F)c1cc(Cl)c2nc(-c3ccccc3)cn2c1	inconclusive: 3.16 µM [inhibitor, single point]	–
C=C(C)c1cccc(C(C)(C)NC(=O)NCC2CCCO2)c1 (centres undefined)	–	inactive: -2.17% [at 46.1 µM]
COc1ccc(C(=O)N/C(=C\c2cc(OC)c(OC)cc2[N+](=O)[O-])C(=O)NCC(=O)O)cc1	inconclusive: 0.631 µM [inhibitor, full curve, poor fit]	–
CCN(CC(=O)NCc1ccc(F)cc1)C(=O)COc1ccc2ccccc2c1	inconclusive: 39.8 µM [inhibitor, partial curve, poor fit]	–
COc1ccc(C2C(C(=O)c3ccccc3)=C(C)Nc3nc4ccccc4n32)cc1OC (centres undefined)	inconclusive: 23.1 µM [activator, single point]	–
Cc1nn(-c2ccccc2)c(C)c1NC(=O)COc1ccc([N+](=O)[O-])cc1	inconclusive: 12.6 µM [inhibitor, partial curve, poor fit]	–
Cc1ccc(-c2nn(CC(=O)Nc3cccc(C(F)(F)F)c3)c(=O)c3ccccc23)cc1	inconclusive: 35.5 µM [inhibitor, partial curve, poor fit]	–
Cc1ccc(-c2nc3ccccc3[nH]2)cc1NC(=O)COc1cccc(C)c1C	inconclusive: 2.82 µM [inhibitor, full curve, poor fit]	–
Cn1nc(C(F)(F)F)cc1Oc1ncc(C(F)(F)F)cc1Cl	–	inactive: 11.8% [at 14.2 µM]
CCOC(=O)c1sc(NC(=O)c2cccc(S(=O)(=O)N3CCN(C)CC3)c2)cc1C	inactive and inconclusive: 3.55 µM [inhibitor, single point]	–
CS(=O)(=O)c1ccc2nc(NC(=O)c3ccc(Cn4cc(Br)cn4)o3)sc2c1	–	inactive: 4.18%
COc1cc(CNc2ccc3[nH]c(=O)[nH]c3c2)cc(Cl)c1OCc1ccccc1F	inconclusive: 3.98 µM [inhibitor, full curve]	–
CN(c1ccccc1)C1CCCCC1NS(=O)(=O)c1ccc(Cl)cc1 (centres undefined)	inconclusive: 20.6 µM [inhibitor, single point]	–
CC(C)(C)c1ccccc1OCC(=O)NCCCn1ccnc1	inconclusive: 28.2 µM [inhibitor, single point]	–
CCC(=O)Nc1cccc(C(=O)OC)c1	–	inactive: 3.58% [at 46.1 µM]
CCOc1ccc(-n2c(SCC(=O)NC)nnc2-c2ccco2)cc1	–	inactive: -3.13%
CCOC(=O)c1nn(-c2cccc(C)c2)cc1C(=O)c1ccccc1	inconclusive: 22.4 µM [activator, single point]	–
CC(C)CSc1oc(-c2ccco2)nc1S(=O)(=O)c1ccc(Br)cc1	inconclusive: 6.31 µM [inhibitor, full curve]	–
CCOc1ccc(-n2c(=O)c3c(C)c(C)sc3n(Cc3cc(=O)n4cc(Cl)ccc4n3)c2=O)cc1	–	inactive: 5.75% [at 46.1 µM]
CC12CCC(=O)C=C1CCC1C2CCC2(C)C1CC1C3C(=O)N(Cc4ccccc4)C(=O)C3CC(=O)C12 (centres undefined)	inconclusive: 20 µM [inhibitor, partial curve]	–
